Values of other authors as cited in patent publication US10611795B2, “Methods for viral inactivation using eco-friendly detergents” (priority 2013, dated 2020).
Some of these results come from one statement about several compounds together. At least one compound was matched to its structure with a doubt left.

Details: 24 h Daphnia magna; cited from earlier work

Row | SMILES | acute EC50
1 | CCCCCCCCCCOC1OC(CO)C(O)C(O)C1O (stereo not drawn) [Alkylglucosides C10] | C10) acute EC50 >500 mg/l
2 | CCCCCCOC1OC(CO)C(O)C(O)C1O (stereo not drawn) [Alkylglucosides C6] | C10) acute EC50 >500 mg/l
3 | CCCCCCCCOC1OC(CO)C(O)C(O)C1O (stereo not drawn) [Alkylglucosides C8] | C10) acute EC50 >500 mg/l
